The record followed here is doi:10.1101/2023.02.01.526621 (bioRxiv, 2023).

This experiment has as its target T1, GST-CESA3CD (catalytic domain of cellulose synthase CESA3 fused to GST) (Arabidopsis thaliana) (UniProt Q941L0).
T1 sequence: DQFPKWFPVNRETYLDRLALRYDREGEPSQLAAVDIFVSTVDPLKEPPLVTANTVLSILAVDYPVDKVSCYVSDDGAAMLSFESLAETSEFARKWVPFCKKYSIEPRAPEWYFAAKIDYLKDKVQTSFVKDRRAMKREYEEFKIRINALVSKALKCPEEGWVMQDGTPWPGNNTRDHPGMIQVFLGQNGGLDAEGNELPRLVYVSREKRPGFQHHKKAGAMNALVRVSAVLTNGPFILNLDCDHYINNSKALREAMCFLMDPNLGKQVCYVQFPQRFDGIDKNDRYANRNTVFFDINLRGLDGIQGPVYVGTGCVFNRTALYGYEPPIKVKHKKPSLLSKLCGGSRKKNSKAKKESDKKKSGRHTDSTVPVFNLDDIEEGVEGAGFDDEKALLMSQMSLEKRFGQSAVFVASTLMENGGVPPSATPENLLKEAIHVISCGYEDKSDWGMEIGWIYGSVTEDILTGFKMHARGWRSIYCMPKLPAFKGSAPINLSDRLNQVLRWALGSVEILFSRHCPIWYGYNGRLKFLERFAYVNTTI
Put plainly: pull-down.

Results are given in words; binding and its absence hold for the method and conditions named. Some results given as binding are weak or reduced against the parent protein; the word gives no strength. Tags and fused reporters may be left off the sequences shown.

B1: His-CPK32-K (kinase domain of CPK32) (domain or fragment, UniProt Q6NLQ6 63-321)
chain: YTLGRELGRGEFGVTYLCTDKETDDVFACKSILKKKLRTAVDIEDVRREVEIMRHMPEHPNVVTLKETYEDEHAVHLVMELCEGGELFDRIVARGHYTERAAAAVTKTIMEVVQVCHKHGVMHRDLKPENFLFGNKKETAPLKAIDFGLSVFFKPGERFNEIVGSPYYMAPEVLKRNYGPEVDIWSAGVILYILLCGVPPFWAETEQGVAQAIIRSVLDFRRDPWPKVSENAKDLIRKMLDPDQKRRLTAQQVLDHPWL
In the case of B1, the binding entry is reported as “binds”.
